Data source: PubChem BioAssay AID504793 (Drosophila RNAi Screening Center, 2011)
The deposit covers about 23,000 reagents; shown is an unselected part of those with a known target gene and a result. Over the whole deposit, 62 (0.27%) were called active. 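Calls come from follow-up tests whose scores are not deposited, so confirmed genes may have low counts here; counts are not normalised per plate.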 Raw values are not corrected between plates. Names joined by + are all predicted targets of the reagent. No sequences are given here.

Aim: 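Whole-genome screen for parts of the DNA damage checkpoint at G2/M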 (primary screen)
System: Drosophila S2R+ cells
Knock-down reagent: long dsRNA against Drosophila genes, about 0.25 µg dsRNA per well
Duration: 4 days of dsRNA, then 4 hours of drug before read-out
Challenge: doxorubicin 0.5 µM for 4 hours to cause double-strand breaks, in cells also given a low, harmless dose of dsRNA against nbs to sensitise the assay
Measured: 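Per-well count of mitotic cells stained for phospho-histone H3 after doxorubicin exposure, used as mitotic index; counts are raw and not normalised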
Reading the numbers: mitotic cells: higher = more cells in mitosis, weaker G2 arrest
Hit rule: 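Genes are called active only when high mitotic counts were reproduced with independent dsRNAs and mitosis was checked for delay without damage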
Meaning of the calls: active = confirmed in follow-up tests; inactive = not confirmed

| gene | dsRNA | mitotic cells, replicate 1 | Call |
| --- | --- | --- | --- |
| CG5098 | DRSC06915 | 7 | inactive |
| CG5098 | DRSC24664 | 14 | inactive |
| CG13423 | DRSC06386 | 3 | inactive |
| CG15498 | DRSC15040 | 10 | inactive |
| CG12521 | DRSC09893 | 8 | inactive |
| dpr14 | DRSC17767 | 6 | inactive |
| dpr14 | DRSC26488 | 10 | inactive |
| Mst77F | DRSC11871 | 3 | inactive |
| CG14615 | DRSC20627 | 7 | inactive |
| CG11414 | DRSC04110 | 6 | inactive |
| Nap1 | DRSC04626 | 7 | inactive |
| beat-Ic | DRSC01524 | 4 | inactive |
| beat-Ic | DRSC03491 | 2 | inactive |
| beat-Ic | DRSC23508 | 5 | inactive |
| Adk1 | DRSC15514 | 6 | inactive |
| CG6324 | DRSC19985 | 4 | inactive |
| Elba1 | DRSC00276 | 4 | inactive |
| Elba1 | DRSC24062 | 3 | inactive |
| CG9192 | DRSC08639 | – | inactive |
| CG30345 | DRSC05144 | 2 | inactive |
| CG13046 | DRSC09927 | 3 | inactive |
| Akt | DRSC14108 | 6 | inactive |
| CG8960 | DRSC08612 | 6 | inactive |
| CG8960 | DRSC27132 | 5 | inactive |
| CG10527 | DRSC04078 | 8 | inactive |
| CG10527 | DRSC27160 | 2 | inactive |
| Ccp84Af | DRSC12591 | 2 | inactive |
| Ccp84Af | DRSC25262 | 3 | inactive |
| Tpl94D | DRSC13593 | 24 | inactive |
| His2Av | DRSC16702 | 5 | inactive |
| Pka-C2 | DRSC16790 | 11 | inactive |
| Pka-C2 | DRSC23310 | 11 | inactive |
| Pka-C2 | DRSC29076 | 3 | inactive |
| CG9896 | DRSC03962 | 5 | inactive |
| CG9896 | DRSC04594 | 4 | inactive |
| Ptpa | DRSC00776 | 5 | inactive |
| Ptpa | DRSC28747 | 4 | inactive |
| beta-Man | DRSC12208 | 10 | inactive |
| beta-Man | DRSC12209 | 8 | inactive |
| CG1317 | DRSC08305 | 6 | inactive |
| CG33272 | DRSC09116 | 15 | inactive |
| ph-p | DRSC18820 | 9 | inactive |
| ken | DRSC23196 | 5 | inactive |
| Teh3 | DRSC08537 | 2 | inactive |
| Teh3 | DRSC29472 | 6 | inactive |
| tej | DRSC07219 | 10 | inactive |
| tej | DRSC24278 | 6 | inactive |
| Su(var)2-10 | DRSC07721 | 18 | active |
| Su(var)2-10 | DRSC28335 | 7 | inactive |
| CG6142 | DRSC15976 | 8 | inactive |
| gNacalpha | DRSC00654 | 7 | inactive |
| gNacalpha | DRSC29840 | 9 | inactive |
| Pdp | DRSC17825 | 3 | inactive |
| Pdp | DRSC26725 | 4 | inactive |
| Cyp9f2 | DRSC16635 | 5 | inactive |
| fan | DRSC10930 | 5 | inactive |
| CG15870 | DRSC06588 | 3 | inactive |
| CG15870 | DRSC26344 | 4 | inactive |
| CG30278 | DRSC22787 | 13 | inactive |
| CG33998 | DRSC05747 | 12 | inactive |
| Jhbp6 | DRSC11714 | 5 | inactive |
| Jhbp6 | DRSC26892 | 7 | inactive |
| Tsf3 | DRSC06849 | 7 | inactive |
| CG11638 | DRSC18167 | 18 | inactive |
| CG11638 | DRSC18640 | 14 | inactive |
| Ir60e | DRSC04227 | 10 | inactive |
| CG10098 | DRSC12509 | 4 | inactive |
| CG10098 | DRSC26223 | 2 | inactive |

Continued (11 carried over from the part before).
| gene | dsRNA | mitotic cells, replicate 1 | Call |
| --- | --- | --- | --- |
| CG15870 | DRSC26344 | 4 | inactive |
| CG30278 | DRSC22787 | 13 | inactive |
| CG33998 | DRSC05747 | 12 | inactive |
| Jhbp6 | DRSC11714 | 5 | inactive |
| Jhbp6 | DRSC26892 | 7 | inactive |
| Tsf3 | DRSC06849 | 7 | inactive |
| CG11638 | DRSC18167 | 18 | inactive |
| CG11638 | DRSC18640 | 14 | inactive |
| Ir60e | DRSC04227 | 10 | inactive |
| CG10098 | DRSC12509 | 4 | inactive |
| CG10098 | DRSC26223 | 2 | inactive |
| Fit2 | DRSC10908 | 5 | inactive |
| sls | DRSC08528 | 4 | inactive |
| sls | DRSC08540 | 3 | inactive |
| sls | DRSC08670 | 6 | inactive |
| mtg | DRSC16256 | 4 | inactive |
| mtg | DRSC24674 | 8 | inactive |
| CG14416 | DRSC18639 | 10 | inactive |
| CG14416 | DRSC29804 | 8 | inactive |
| CG30373 | DRSC05081 | 1 | inactive |
| CG30373 | DRSC29668 | 8 | inactive |
| AP-1-2beta | DRSC19336 | 10 | inactive |
| AP-1-2beta | DRSC23868 | 5 | inactive |
| Rim | DRSC16224 | 6 | inactive |
| Rim | DRSC16226 | 4 | inactive |
| Rim | DRSC16227 | 8 | inactive |
| Rim | DRSC22406 | 9 | inactive |
| Idgf1 | DRSC03349 | 6 | inactive |
| Idgf1 | DRSC26045 | 4 | inactive |
| CG40191 | DRSC21041 | 8 | inactive |
| CG13029 | DRSC09909 | 7 | inactive |
| E(Pc) | DRSC05281 | 3 | inactive |
| E(Pc) | DRSC07408 | 5 | inactive |
| CG3513 | DRSC00608 | 4 | inactive |
| c-cup | DRSC00458 | 6 | inactive |
| capt | DRSC00676 | 4 | inactive |
| capt | DRSC00806 | 2 | inactive |
| capt | DRSC27343 | 7 | inactive |
| capt | DRSC28196 | 5 | inactive |
| CG13016 | DRSC06271 | 9 | inactive |
| CG7872 | DRSC20062 | 7 | inactive |
| CG15696 | DRSC15118 | 12 | inactive |
| CG15696 | DRSC25170 | 6 | inactive |
| Rack1 | DRSC03405 | 3 | inactive |
| Rack1 | DRSC23796 | 8 | inactive |
| mmm | DRSC10208 | 8 | inactive |
| Pkn + Tsen15 | DRSC21969 | 6 | inactive |
| Pkn + Tsen15 | DRSC27376 | 8 | inactive |
| CG42594 | DRSC18408 | 6 | inactive |
| CG42594 | DRSC22978 | 13 | inactive |
| CG42594 | DRSC25767 | 7 | inactive |
| CG42594 | DRSC26285 | 9 | inactive |
| CG42594 | DRSC28979 | 3 | inactive |
